Reference: PubChem BioAssay AID1487 (National Center for Advancing Translational Sciences (NCATS), 2009)
Values joined by “and” are separate entries in the source; they are usually repeats but may differ in a detail not shown here. Equal values may be shown once. Some of the results follow. Shown are side measurements of this screen, not its main read-out; they come without a call. The list favours compounds with an active or inconclusive main result. The note in brackets gives the kind of curve behind each potency; many fits are weak.

Experiment: qHTS Assay for Modulators of Lamin A Splicing
Details: HeLa LMNA splicing GFP/RFP minigene ratio, 48 h
In short: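 Read-out is the ratio of GFP to DsRed2 object intensity, acquired by 488 nm laser-scanning cytometry on HeLa lamin A-EGFP minigene reporter cells. Compound incubation 48 hrs at 37 °C in Opti-MEM with 2% FBS; DMSO 0.5% final.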

[1] = measured here: GFP splicing reporter channel
[2] = measured here: RFP viability control channel

Structure (SMILES) | AC50 [1] | AC50 [2]
CCn1c(-c2ccccc2)csc1=Nc1ccc(O)cc1 | 14.1 µM [falling, partial curve, poor fit] | –
O=C(Nc1cccc(C(=O)N2CCN(c3ccccc3)CC2)c1)c1nsc2ccccc12 | 0.282 µM [rising, single point] | –
CCc1ccc(C2=C(C)C(N3CCC(C(=O)Nc4ccc(F)cc4)CC3)=NS2(=O)=O)cc1 | 22.4 µM [falling, single point] | 22.4 µM [falling, single point]
O=C1/C(=C\c2cccnc2)CN(Cc2ccccc2)C/C1=C\c1cccnc1 | 3.55 µM [falling, single point] | 5.62 µM [falling, single point]
O=C(N/N=C\c1ccc(O)c([N+](=O)[O-])c1)c1ccccc1-n1cccc1 | – | 17.8 µM [rising, single point]
COc1cc([N+](=O)[O-])ccc1NC(=O)NCc1ccco1 | 0.891 µM [rising, full curve, poor fit] | 1 µM [rising, full curve]
O=C1c2ccccc2C2=Nc3ccccc3SC(c3cccc(F)c3)C12 (stereo unspecified) | 35.5 µM [rising, single point] | 35.5 µM [rising, partial curve]
Fc1ccc(NC(=S)NCc2ccccc2Cl)cc1 | – | 11.2 µM [rising, partial curve]
CC(=O)c1cc2c(cc1NS(=O)(=O)c1ccc(C)cc1)OCCO2 | – | 11.2 µM [rising, single point]
CCc1nc(N)nc(N)c1-c1ccc(Cl)cc1 | 31.6 µM [rising, single point] | 31.6 µM [rising, single point]
Cc1c(C(=O)NN2CCCCC2)nn(-c2ccc(Cl)cc2Cl)c1-c1ccc(I)cc1 | 5.62 µM [rising, single point] | 3.98 µM [rising, full curve, poor fit]
CC(=O)CSc1nc2cc3c(cc2cc1C#N)OCCO3 | 4.47 µM [rising, partial curve, poor fit] | 4.47 µM [rising, partial curve]
Fc1ccc(-c2csc3ncnc(Cl)c23)cc1 | 35.5 µM [falling, single point] | –
COc1ccc(-c2nnc(OCc3ccccc3)c3ccccc23)cc1 | 25.1 µM [falling, partial curve, poor fit] | 22.4 µM [falling, single point]
CCOC(=O)CC(=O)CSc1nc2c(cc1C#N)CCCCCC2 | – | 17.8 µM [rising, single point]
O=C(c1cc(-c2ccccc2)nc2ccccc12)N1CCOCC1 | – | 5.62 µM [rising, full curve, poor fit]
Cc1ccc(SCC(=O)NCc2ccncc2)cc1 | 31.6 µM [rising, single point] | 35.5 µM [rising, single point]

Structure (SMILES) | AC50 [1] | AC50 [2]
CCCCc1c(C)nn(-c2nnc3c4ccccc4n(CC)c3n2)c1C | – | 12.6 µM [rising, single point]
COc1cccc(CNC(=O)CSc2nc3ccccc3nc2Cc2ccccc2)c1 | 0.447 µM [rising, full curve, poor fit] | –
Cc1cccc(N=C2NN=C(c3ccc4c(c3)OCCO4)CS2)c1 | 12.6 µM [falling, partial curve] | 22.4 µM [falling, single point]
COc1ccccc1NC(=S)N(Cc1ccco1)Cc1cc2cc(C)ccc2[nH]c1=O | – | 2.82 µM [rising, full curve, poor fit]
O=C(O)c1cccc(S(=O)(=O)N(Cc2ccccc2)c2ccccc2)c1 | 0.794 µM [falling, full curve, poor fit] | 1 µM [falling, single point]
Cc1ccc2c(c1)cc(C(=O)NCc1ccc(F)cc1)n2C | – | 3.98 µM [rising, partial curve, poor fit]
Cc1cnc([N+](=O)[O-])n1CCOC(=O)NC(=O)c1c(F)cccc1F | 6.31 µM [falling, partial curve, poor fit] | –
CCOCC(=O)Nc1ccc(-c2cn3c(C)csc3n2)cc1 | 0.891 µM [rising, full curve, poor fit] | –
CC(C)NCC(O)COc1ccc(CCOCC2CC2)cc1 (stereo unspecified) | 25.1 µM [falling, partial curve, poor fit] and 35.5 µM [falling, single point] | 25.1 µM [falling, partial curve] and 35.5 µM [falling, single point]
CC(C)CC(=O)NC(Nc1ccc([N+](=O)[O-])cc1)C(Cl)(Cl)Cl (stereo unspecified) | 4.47 µM [rising, partial curve] | –
Cc1ccc(NC(=O)Nc2nc3c(s2)CCCCCC3)cc1C | 11.2 µM [falling, partial curve, poor fit] | 11.2 µM [falling, partial curve, poor fit]
O=C(Nc1cccnc1)c1ccc(CN2CCc3ccccc3C2)cc1 | 12.6 µM [rising, partial curve, poor fit] | 17.8 µM [rising, partial curve]
CC(=O)/C=C/c1ccccc1O | 15.8 µM [rising, single point] | 12.6 µM [rising, partial curve, poor fit]
O=C(NC1CC(=O)N(c2ccc(F)cc2)C1)c1ccc(S(=O)(=O)N2CCCC2)cc1 (stereo unspecified) | 8.91 µM [falling, partial curve, poor fit] | 12.6 µM [falling, partial curve]
CCNc1ncc2nc(-c3ccc(OC)cc3)c(=O)n(Cc3cccs3)c2n1 | 12.6 µM [falling, single point] | 12.6 µM [falling, partial curve]
COc1cc([C@H]2c3cc4c(cc3[C@@H](O[C@H]3O[C@H]5CO[C@@H](C)O[C@H]5[C@@H](O)[C@@H]3O)[C@@H]3COC(=O)[C@H]23)OCO4)cc(OC)c1O | 0.00631 µM [falling, full curve] | 0.0355 µM [rising, full curve, poor fit]

Full records from above. Order of values: AC50 [1] | AC50 [2]
`O=C1/C(=C\c2cccnc2)CN(Cc2ccccc2)C/C1=C\c1cccnc1` is listed as 3.55 µM [falling, single point] | 5.62 µM [falling, single point]
`CC(=O)CSc1nc2cc3c(cc2cc1C#N)OCCO3` is listed as 4.47 µM [rising, partial curve, poor fit] | 4.47 µM [rising, partial curve]
